For this experiment, the target named is NACHT, LRR, and PYD domains-containing protein 3 (mouse (endogenous in Kupffer cells)) (UniProt Q8R4B8). Briefly: affinity purification with mass spectrometry; bands cut from the Coomassie-stained gel of the anti-NLRP3 Co-IP of Kupffer cell lysate, trypsin digest, nano-LC-MS/MS (Q-Exactive, Maxquant).

Sequences of proteins named here, by UniProt entry; tags and fusion partners are left off.
UniProt Q8R4B8: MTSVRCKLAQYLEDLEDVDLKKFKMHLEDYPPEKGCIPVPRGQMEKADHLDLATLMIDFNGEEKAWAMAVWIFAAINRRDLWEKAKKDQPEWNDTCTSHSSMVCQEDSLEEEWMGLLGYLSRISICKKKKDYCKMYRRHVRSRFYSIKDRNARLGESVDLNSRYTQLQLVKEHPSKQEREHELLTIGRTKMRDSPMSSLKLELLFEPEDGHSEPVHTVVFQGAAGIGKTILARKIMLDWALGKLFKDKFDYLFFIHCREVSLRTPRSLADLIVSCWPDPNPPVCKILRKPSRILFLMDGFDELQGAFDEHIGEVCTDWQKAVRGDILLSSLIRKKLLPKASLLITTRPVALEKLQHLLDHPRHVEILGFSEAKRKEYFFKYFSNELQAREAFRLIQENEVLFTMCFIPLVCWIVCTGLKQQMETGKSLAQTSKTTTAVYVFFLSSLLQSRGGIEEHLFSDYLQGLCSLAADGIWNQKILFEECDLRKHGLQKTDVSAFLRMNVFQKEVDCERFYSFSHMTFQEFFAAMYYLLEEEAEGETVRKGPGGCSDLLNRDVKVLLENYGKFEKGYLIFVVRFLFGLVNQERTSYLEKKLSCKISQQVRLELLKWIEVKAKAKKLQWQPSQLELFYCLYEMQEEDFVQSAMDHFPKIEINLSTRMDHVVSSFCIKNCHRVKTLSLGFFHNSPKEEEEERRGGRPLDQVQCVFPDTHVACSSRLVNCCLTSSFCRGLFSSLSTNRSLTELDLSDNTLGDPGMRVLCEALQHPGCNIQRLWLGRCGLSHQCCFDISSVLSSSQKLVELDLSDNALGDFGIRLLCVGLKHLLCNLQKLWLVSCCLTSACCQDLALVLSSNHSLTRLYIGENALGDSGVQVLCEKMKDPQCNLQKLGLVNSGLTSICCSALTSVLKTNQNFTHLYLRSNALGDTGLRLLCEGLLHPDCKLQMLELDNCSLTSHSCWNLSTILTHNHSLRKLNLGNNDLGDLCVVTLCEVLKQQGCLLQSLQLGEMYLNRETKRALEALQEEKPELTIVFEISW

No constants are given. Whether binding was seen depends on the method and setting. Binding seen in cells or lysates may run through a third protein. A yes stands for co-enrichment or nearness to the bait. Other partners may have been found.

B1: Thioredoxin-interacting protein (protein, UniProt Q8BG60 1-397)
chain: MVMFKKIKSFEVVFNDPEKVYGSGEKVAGRVIVEVCEVTRVKAVRILACGVAKVLWMQGSQQCKQTLDYLRYEDTLLLEEQPTAGENEMVIMRPGNKYEYKFGFELPQGPLGTSFKGKYGCVDYWVKAFLDRPSQPTQEAKKNFEVMDLVDVNTPDLMAPVSAKKEKKVSCMFIPDGRVSVSARIDRKGFCEGDDISIHADFENTCSRIVVPKAAIVARHTYLANGQTKVFTQKLSSVRGNHIISGTCASWRGKSLRVQKIRPSILGCNILKVEYSLLIYVSVPGSKKVILDLPLVIGSRSGLSSRTSSMASRTSSEMSWIDLNIPDTPEAPPCYMDIIPEDHRLESPTTPLLDDVDDSQDSPIFMYAPEFQFMPPPTYTEVDPCVLNNNNNNNNVQ
In the case of B1, the binding result was “binds”.

The values above are taken from publication PMC5514938.
